US20160002619A1 (CORNELL UNIVERSITY, published 2016)
Results are given in words; binding and its absence hold for the method and conditions named. Some binding calls cover weakened binding; strength is not graded here.

What was measured:
[1] = target: Δ72 R459A GAC; test: preparative Superdex200 gel filtration, self-association
[2] = target: Δ72 R459E GAC; test: as above

binding [1] | binding [2] | Binder
binds | – | Δ72 R459A GAC (enzyme) glutaminase C subunit: LSSSPSEILQELGKGGTPPQQQQQQQQQPGASPPAAPGPKDSPGETDAFGNSEGKEMVAAGDNKIKQGLLPSLEDLLFYTIAEGQEKIPVHKFITALKSTGLRTSDPRLKECMDMLRLTLQTTSDGVMLDKDLFKKCVQSNIVLLTQAFRRKFVIPDFMSFTSHIDELYESAKKQSGGKVADYIPQLAKFSPDLWGVSVCTVDGQRHSIGDTKVPFCLQSCVKPLKYAIAVNDLGTEYVHRYVGKEPSGLRFNKLFLNEDDKPHNPMVNAGAIVVTSLIKQGVNNAEKFDYVMQFLNKMAGNEYVGFSNATFQSERESGDRNFAIGYYLKEKKCFPEGTDMVGILDFYFQLCSIEVTCESASVMAATLANGGFCPITGERVLSPEAVANTLSLMHSCGMYDFSGQFAFHVGLPAKSGVAGGILLVVPNVMGMMCWSPPLDKMGNSVKGIHFCHDLVSLCNFHNYDNLRHFAKKLDPRREGGDQRHSFGPLDYESLQQELALKDTVWKKVSPESSDDTSTTVVYRMESLGERS
– | binds | Δ72 R459E GAC (enzyme) glutaminase C subunit: LSSSPSEILQELGKGGTPPQQQQQQQQQPGASPPAAPGPKDSPGETDAFGNSEGKEMVAAGDNKIKQGLLPSLEDLLFYTIAEGQEKIPVHKFITALKSTGLRTSDPRLKECMDMLRLTLQTTSDGVMLDKDLFKKCVQSNIVLLTQAFRRKFVIPDFMSFTSHIDELYESAKKQSGGKVADYIPQLAKFSPDLWGVSVCTVDGQRHSIGDTKVPFCLQSCVKPLKYAIAVNDLGTEYVHRYVGKEPSGLRFNKLFLNEDDKPHNPMVNAGAIVVTSLIKQGVNNAEKFDYVMQFLNKMAGNEYVGFSNATFQSERESGDRNFAIGYYLKEKKCFPEGTDMVGILDFYFQLCSIEVTCESASVMAATLANGGFCPITGERVLSPEAVENTLSLMHSCGMYDFSGQFAFHVGLPAKSGVAGGILLVVPNVMGMMCWSPPLDKMGNSVKGIHFCHDLVSLCNFHNYDNLRHFAKKLDPRREGGDQRHSFGPLDYESLQQELALKDTVWKKVSPESSDDTSTTVVYRMESLGERS
